Data as given in PubChem BioAssay AID1508597 (Cure First, 2020)

Aim: 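Survival screen with siRNA in ovarian cancer cells derived from patients, with or without rucaparib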 (primary screen)
Cell system: human ovarian carcinoma lines grown from tumours: OCI-P5x (papillary serous) and OCI-C5x (clear cell)
Reagent: siRNA pool against human genes, 1.25 pmol siRNA per well
Timing: 72 h or 96 h, depending on the cell culture
Conditions: rucaparib 20 µM (about IC30) or vehicle, present until read-out
Rucaparib or vehicle: Vehicle
Cell line: OCI-C5x (clear cell)
Read-out: 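ATP luminescence measured at 72 or 96 h according to the culture, then normalised and expressed as percent viability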
Reading the numbers: viability, normalised: higher = more viable cells remaining
Rule for the call: 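a well counts as a hit if its normalised viability is under 80 percent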
Meaning of the calls: active = viability under 80%; inactive = viability 80% or more
This is a random part of the about 2,100 reagents, under one of the conditions tested. 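Calls flag viability under 80% in either arm, not effects specific to rucaparib; the reference for percent is not stated.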 Some reagents were tested in more than one well and are listed for each. Not stated in the record: the 100% reference.

target gene,technical replicate,"viability, normalised (%)",call
POLH,1,61.5,active
POLH,1,59.3,active
POLH,2,64.4,active
POLH,2,63.4,active
POLH,3,58.6,active
POLH,3,45.3,active
WNK4,1,61.7,active
WNK4,2,60.1,active
WNK4,3,60.1,active
APEX2,1,47.1,active
APEX2,2,38.1,active
APEX2,3,44.8,active
TK1,1,66.7,active
TK1,1,55.9,active
TK1,2,67.1,active
TK1,2,52.4,active
TK1,3,48.2,active
TK1,3,51.6,active
KPNA3,1,47.9,active
KPNA3,2,50.5,active
KPNA3,3,42.2,active
SETD7,1,59.2,active
SETD7,2,42.5,active
SETD7,3,49.9,active

Part of the list above, reformatted:
{"target gene":"SETD7","technical replicate":"2","viability, normalised (%)":42.5,"call":"active"}
{"target gene":"SETD7","technical replicate":"3","viability, normalised (%)":49.9,"call":"active"}
